Assay results: paper PMC10786121, “Rab29-dependent asymmetrical activation of leucine-rich repeat kinase 2” (Science (New York, N.Y.), 2023)
These are yes or no findings as the source states them, for the method shown. In cells and extracts the contact can be indirect. Binding calls can cover weak binding; strength is not graded here.

By UniProt entry, the sequences of proteins in these tests, tags left out. Where a name states a change or a piece, a line headed by the entry shows the natural chain unless it says otherwise.
UniProt Q5S007: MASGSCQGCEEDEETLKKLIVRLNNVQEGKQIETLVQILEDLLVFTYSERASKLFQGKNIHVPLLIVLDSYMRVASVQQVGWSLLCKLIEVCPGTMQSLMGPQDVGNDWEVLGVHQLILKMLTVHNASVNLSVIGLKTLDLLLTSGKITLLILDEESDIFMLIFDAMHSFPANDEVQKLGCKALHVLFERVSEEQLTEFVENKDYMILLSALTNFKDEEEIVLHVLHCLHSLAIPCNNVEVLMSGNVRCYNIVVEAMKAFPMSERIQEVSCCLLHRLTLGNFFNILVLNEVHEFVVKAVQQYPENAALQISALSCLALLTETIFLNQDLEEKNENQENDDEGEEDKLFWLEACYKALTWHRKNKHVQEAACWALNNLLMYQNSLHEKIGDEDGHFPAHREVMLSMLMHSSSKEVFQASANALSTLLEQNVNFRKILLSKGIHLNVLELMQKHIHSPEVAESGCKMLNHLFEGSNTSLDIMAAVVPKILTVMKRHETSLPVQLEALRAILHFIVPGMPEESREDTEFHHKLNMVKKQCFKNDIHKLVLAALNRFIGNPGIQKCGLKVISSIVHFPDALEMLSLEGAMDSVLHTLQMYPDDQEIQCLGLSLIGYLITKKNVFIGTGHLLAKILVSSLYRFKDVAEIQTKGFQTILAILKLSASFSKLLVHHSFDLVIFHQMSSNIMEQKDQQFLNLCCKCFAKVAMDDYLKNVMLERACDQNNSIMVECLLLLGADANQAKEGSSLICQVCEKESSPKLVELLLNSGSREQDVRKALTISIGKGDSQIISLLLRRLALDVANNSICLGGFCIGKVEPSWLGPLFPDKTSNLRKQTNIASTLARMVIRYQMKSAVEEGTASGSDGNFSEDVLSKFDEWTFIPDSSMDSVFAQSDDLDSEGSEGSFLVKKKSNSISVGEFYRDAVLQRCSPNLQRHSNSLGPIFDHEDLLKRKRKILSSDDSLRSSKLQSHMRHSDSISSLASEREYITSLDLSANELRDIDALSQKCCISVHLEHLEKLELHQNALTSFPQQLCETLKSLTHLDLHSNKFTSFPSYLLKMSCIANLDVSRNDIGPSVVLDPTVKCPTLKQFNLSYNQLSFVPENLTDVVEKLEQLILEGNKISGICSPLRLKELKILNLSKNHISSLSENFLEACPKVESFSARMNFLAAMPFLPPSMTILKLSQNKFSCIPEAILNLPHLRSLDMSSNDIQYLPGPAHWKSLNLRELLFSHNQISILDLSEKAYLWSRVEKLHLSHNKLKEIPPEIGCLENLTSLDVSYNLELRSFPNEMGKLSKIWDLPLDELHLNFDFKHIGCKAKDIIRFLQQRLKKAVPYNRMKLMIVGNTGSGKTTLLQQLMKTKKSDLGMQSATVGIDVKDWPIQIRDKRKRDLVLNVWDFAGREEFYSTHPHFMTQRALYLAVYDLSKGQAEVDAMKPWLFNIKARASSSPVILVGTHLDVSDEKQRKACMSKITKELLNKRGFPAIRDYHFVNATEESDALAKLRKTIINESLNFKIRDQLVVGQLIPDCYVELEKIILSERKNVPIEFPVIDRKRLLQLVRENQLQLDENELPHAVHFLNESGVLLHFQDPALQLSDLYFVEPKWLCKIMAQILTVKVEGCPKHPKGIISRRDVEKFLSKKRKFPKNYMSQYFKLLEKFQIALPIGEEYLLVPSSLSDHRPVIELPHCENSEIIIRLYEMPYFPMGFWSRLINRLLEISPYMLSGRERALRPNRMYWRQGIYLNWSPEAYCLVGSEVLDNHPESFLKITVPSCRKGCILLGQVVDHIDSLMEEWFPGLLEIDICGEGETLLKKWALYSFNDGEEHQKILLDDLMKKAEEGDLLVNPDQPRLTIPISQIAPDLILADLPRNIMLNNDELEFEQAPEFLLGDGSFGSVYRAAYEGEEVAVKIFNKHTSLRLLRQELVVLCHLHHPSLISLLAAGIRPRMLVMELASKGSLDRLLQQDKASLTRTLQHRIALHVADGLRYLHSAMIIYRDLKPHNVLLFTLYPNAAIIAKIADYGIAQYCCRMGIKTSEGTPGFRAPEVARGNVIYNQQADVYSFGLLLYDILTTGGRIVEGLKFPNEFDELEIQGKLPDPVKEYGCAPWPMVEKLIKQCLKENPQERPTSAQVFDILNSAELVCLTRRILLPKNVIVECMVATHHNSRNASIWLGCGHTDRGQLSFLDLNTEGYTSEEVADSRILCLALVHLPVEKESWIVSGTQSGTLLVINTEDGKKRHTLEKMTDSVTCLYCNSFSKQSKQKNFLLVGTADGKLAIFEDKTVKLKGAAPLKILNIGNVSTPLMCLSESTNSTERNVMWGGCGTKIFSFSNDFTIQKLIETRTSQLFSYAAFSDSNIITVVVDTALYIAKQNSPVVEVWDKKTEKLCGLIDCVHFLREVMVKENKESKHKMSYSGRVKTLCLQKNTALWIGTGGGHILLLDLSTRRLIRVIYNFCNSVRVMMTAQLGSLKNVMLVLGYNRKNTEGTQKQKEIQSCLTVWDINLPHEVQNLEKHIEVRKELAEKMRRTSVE
UniProt O14966: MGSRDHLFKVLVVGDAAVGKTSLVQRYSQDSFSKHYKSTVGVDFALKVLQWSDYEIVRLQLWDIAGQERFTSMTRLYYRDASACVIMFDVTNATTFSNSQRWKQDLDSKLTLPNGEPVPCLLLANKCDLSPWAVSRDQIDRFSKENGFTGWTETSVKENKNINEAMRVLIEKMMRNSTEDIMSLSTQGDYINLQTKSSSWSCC

Molecular target: leucine-rich repeat kinase 2 (LRRK2) (UniProt Q5S007)
Experiment: pull-down; GST pulldown assay, in vitro (fig. S2G); which partner bore GST is not told in the text shown

| binding | Substance |
| --- | --- |
| binds | Rab29 L7Q (from UniProt O14966) |
| binds | Rab29 L76M (from UniProt O14966) |
